About 5,400 (1.8%) of roughly 300,000 compounds were called active. The shares of active, inactive and inconclusive entries below differ from those in the screen. Calls come from the whole dose curve; tested in HEK293 cells. Potencies of inconclusive entries are doubtful fits and often do not repeat.
Test: qHTS for inhibitors of binding or entry into cells for Marburg Virus
Details: Marburg virus pseudotyped entry inhibition, cell reporter; series mostly up to 37.8 µM
Potency is the fitted concentration of half-maximal effect.

SMILES	Potency
O=C(COC(=O)c1ccc(O)cc1)c1ccc2c(c1)OCCO2	inactive
O=C(CN(Cc1ccccc1)S(=O)(=O)c1ccc(S(=O)(=O)N2CCOCC2)cc1)Nc1ccccc1	inconclusive: 0.282 µM [inhibitor, full curve, poor fit]
CCS(=O)(=O)c1ccc2oc(SCC(=O)NC34CC5CC(CC(C5)C3)C4)nc2c1	inconclusive: 16.4 µM [inhibitor, partial curve, poor fit]
CCOc1cc(/C=C2/NC(=S)NC2=O)ccc1OCc1ccc([N+](=O)[O-])cc1	inconclusive: 8.91 µM [inhibitor, partial curve, poor fit]
CCc1noc(C)c1C(=O)N1CC(C)SC1=Nc1ccc(Cl)cc1 (stereo not drawn)	inactive
CCC(C(=O)NC1CCCC1)N(C(=O)Cn1nnc(-c2ccc(C)o2)n1)c1ccc(OC)cc1 (stereo not drawn)	inconclusive: 7.08 µM [inhibitor, partial curve, poor fit]
O=C(CSc1nc(O)c(C/C=C/c2ccccc2)c(=O)[nH]1)Nc1cccc(F)c1	inactive
Cc1cccc(CNC(=O)CCCN2C(=O)COc3ccc(C)cc32)c1	inactive
Cc1[nH]c(=O)[nH]c(=O)c1S(=O)(=O)NCCc1ccc(S(N)(=O)=O)cc1	inconclusive: 0.891 µM [inhibitor, full curve, poor fit]
CCOc1ccc(S(=O)(=O)NCCC(=O)NCC(c2ccccc2OC)N2CCCC2)cc1 (stereo not drawn)	inactive
CCCOC(=O)Cn1c(=O)c2cc3c(=O)n(CC(=O)OCCC)c(=O)c3cc2c1=O	inactive
O=C(Nc1cccc(S(=O)(=O)N2CCOCC2)c1)C(c1ccccc1)N1CCCCC1 (stereo not drawn)	inconclusive: 35.5 µM [inhibitor, single point]
Cc1ccc(S(=O)(=O)CCc2nc3ccccc3n2CCC#N)cc1	inactive
CCc1nn(CC(=O)NCCN(CC)CC)c(=O)c2cc3occc3n12	inconclusive: 35.5 µM [inhibitor, single point]
CCc1cc(-c2n[nH]c(=S)n2CC(C)C)cs1	inconclusive: 5.62 µM [inhibitor, single point]
CCN(CC)CCNC(=O)C(Oc1ccccc1)Oc1ccccc1	inconclusive: 35.5 µM [inhibitor, single point]
Cc1nc2ncnn2c(C)c1CCC(=O)N1CCN(Cc2ccccc2)CC1	inconclusive: 4.11 µM [activator, full curve, poor fit]
CCOC(=O)c1ccc(N2CN(CCc3ccccc3)CNC2=S)cc1	inconclusive: 3.55 µM [activator, partial curve, poor fit]
CSc1nc2ncc(C(=O)O)c(N)n2n1	inconclusive: 11.2 µM [inhibitor, single point]
CCOC(=O)c1c(C)[nH]c(C(=O)C(C)Cl)c1C (stereo not drawn)	inconclusive: 20 µM [inhibitor, partial curve, poor fit]
COc1ccccc1CNC(=O)COc1ccc(C)cc1	inconclusive: 0.447 µM [inhibitor, partial curve, poor fit]
Cc1ccccc1C(=O)NC1CCN(C(=O)N(c2ccccc2)c2ccccc2)CC1	inconclusive: 7.08 µM [inhibitor, partial curve, poor fit]
CC(C)C(=O)NNC(=O)c1ccccn1	inconclusive: 7.94 µM [activator, partial curve]

SMILES	Potency
Cc1cccc(NC(=O)CN2CCC(NC(=O)C3CCCCC3)CC2)c1C	inactive
CCN(CCC(=O)Nc1ccc(Br)c(C)c1)Cc1ccccc1	inconclusive: 35.5 µM [inhibitor, single point]
CCOc1ccc(-c2cc(N3C(=O)Nc4ccccc4N3O)n[nH]2)cc1	inconclusive: 11.2 µM [inhibitor, partial curve]
CC(=O)/C(=C\Nc1ccc(OCc2ccccc2)cc1)c1ccccc1	inactive
COC(CNC(=O)CCCn1nnnc1CN1CCOCC1)c1cccs1 (stereo not drawn)	inactive
CCN(CC)CCCNC(=O)c1ccccc1C	inactive
CCC(=O)NC(=S)Nc1ccc(S(=O)(=O)NC(C)C)cc1	inactive
c1ccc(-c2cn(-c3ccccc3)c3[n+]2CCCS3)cc1	inconclusive: 22.4 µM [inhibitor, single point]
O=C(Cc1sc(-c2ccccc2Cl)nc1-c1ccccc1)Nc1ccc(F)cc1	inconclusive: 8.91 µM [inhibitor, partial curve, poor fit]
O=C(c1ccc(-n2c(SCc3cc(F)ccc3F)nc3ccccc3c2=O)cc1)N1CCOCC1	inconclusive: 6.31 µM [inhibitor, single point]
COc1ccccc1C(=O)n1nc(-c2ccccc2)nc1NCc1ccco1	inactive
Cc1cc(Oc2cc(N)cc([N+](=O)[O-])c2)ccc1Cl	inactive
Clc1ccc(-c2nnc3n2CCCCS3)cc1	inconclusive: 0.447 µM [inhibitor, full curve, poor fit]
COc1ccc(Nc2nc(NCc3ccco3)nc(N/N=C/c3ccccc3F)n2)cc1	inconclusive: 35.5 µM [inhibitor, single point]
Cc1ccc(CC(=S)N2CCOCC2)cc1	inactive
CCOc1ccc(CC(=O)OCn2nnc3ccccc3c2=O)cc1	inconclusive: 5.62 µM [activator, single point]
Cc1sc(NC(=O)C2=COCCO2)c(C(N)=O)c1C	inconclusive: 12.6 µM [inhibitor, single point]
Cc1ccc(-n2nnnc2-c2cnn(-c3cccc(F)c3)c2C(F)(F)F)cc1	inconclusive: 23.1 µM [inhibitor, partial curve, poor fit]
CC(CNC(=O)c1cc(Cl)ccc1[N+](=O)[O-])NC(=O)c1cc(Cl)ccc1[N+](=O)[O-] (stereo not drawn)	inconclusive: 1.12 µM [inhibitor, partial curve, poor fit]
CN(C)c1nccc(N(Cc2ccccc2)Cc2ccccc2)c1C#N	inactive
CCOc1ccc(-c2cc(CCCC(=O)NCCc3ccc(OCC)c(OCC)c3)no2)cc1	inconclusive: 11.2 µM [inhibitor, partial curve, poor fit]
C[C@@H](NC(=O)CN(c1ccccc1)S(=O)(=O)N(C)C)c1ccccc1	inactive
CCCOC(=O)c1ccc(Nc2nc3ccccc3nc2-n2nc(C)cc2C)cc1	inactive

17 consecutive compounds out of the list so far, quoted:
SMILES	Potency
O=C(CSc1nc(O)c(C/C=C/c2ccccc2)c(=O)[nH]1)Nc1cccc(F)c1	inactive
Cc1cccc(CNC(=O)CCCN2C(=O)COc3ccc(C)cc32)c1	inactive
Cc1[nH]c(=O)[nH]c(=O)c1S(=O)(=O)NCCc1ccc(S(N)(=O)=O)cc1	inconclusive: 0.891 µM [inhibitor, full curve, poor fit]
CCOc1ccc(S(=O)(=O)NCCC(=O)NCC(c2ccccc2OC)N2CCCC2)cc1 (stereo not drawn)	inactive
CCCOC(=O)Cn1c(=O)c2cc3c(=O)n(CC(=O)OCCC)c(=O)c3cc2c1=O	inactive
O=C(Nc1cccc(S(=O)(=O)N2CCOCC2)c1)C(c1ccccc1)N1CCCCC1 (stereo not drawn)	inconclusive: 35.5 µM [inhibitor, single point]
Cc1ccc(S(=O)(=O)CCc2nc3ccccc3n2CCC#N)cc1	inactive
CCc1nn(CC(=O)NCCN(CC)CC)c(=O)c2cc3occc3n12	inconclusive: 35.5 µM [inhibitor, single point]
CCc1cc(-c2n[nH]c(=S)n2CC(C)C)cs1	inconclusive: 5.62 µM [inhibitor, single point]
CCN(CC)CCNC(=O)C(Oc1ccccc1)Oc1ccccc1	inconclusive: 35.5 µM [inhibitor, single point]
Cc1nc2ncnn2c(C)c1CCC(=O)N1CCN(Cc2ccccc2)CC1	inconclusive: 4.11 µM [activator, full curve, poor fit]
CCOC(=O)c1ccc(N2CN(CCc3ccccc3)CNC2=S)cc1	inconclusive: 3.55 µM [activator, partial curve, poor fit]
CSc1nc2ncc(C(=O)O)c(N)n2n1	inconclusive: 11.2 µM [inhibitor, single point]
CCOC(=O)c1c(C)[nH]c(C(=O)C(C)Cl)c1C (stereo not drawn)	inconclusive: 20 µM [inhibitor, partial curve, poor fit]
COc1ccccc1CNC(=O)COc1ccc(C)cc1	inconclusive: 0.447 µM [inhibitor, partial curve, poor fit]
Cc1ccccc1C(=O)NC1CCN(C(=O)N(c2ccccc2)c2ccccc2)CC1	inconclusive: 7.08 µM [inhibitor, partial curve, poor fit]
CC(C)C(=O)NNC(=O)c1ccccn1	inconclusive: 7.94 µM [activator, partial curve]

Following part.

SMILES	Potency
CCCCn1c(SCC(=O)c2ccccc2)nc2c1c(=O)[nH]c(=O)n2C	inconclusive: 0.316 µM [inhibitor, partial curve, poor fit]
COC(=O)c1ccc(CSc2nnc(-c3ccncc3)o2)cc1	inactive
COc1cccc(C(=O)Nc2ccccc2-c2nnc(-c3ccc(C(C)(C)C)cc3)o2)c1	inactive
COc1ccc(NC(=O)CSc2nc3[nH]c(=O)[nH]c(=O)c3s2)cc1OC	inconclusive: 5.62 µM [activator, full curve, poor fit]
Cc1cccc(N2CCN(C(=O)C3CCN(S(=O)(=O)c4cccc5nsnc45)CC3)CC2C)c1 (stereo not drawn)	inconclusive: 17.8 µM [inhibitor, single point]
CCCCN(CC)CCNC(=O)c1cc2c(=O)n(C)c3ccccc3c2s1	active: 7.94 µM
CCOC(=O)C1CN(S(=O)(=O)c2ccc(OC)cc2)c2ccccc2O1 (stereo not drawn)	inconclusive: 35.5 µM [activator, single point]
c1cncc(-c2nnc(-c3cccnc3)nn2)c1	inconclusive: 11.2 µM [inhibitor, partial curve, poor fit]
CCCCN1C(=O)NC(=O)C2(Cc3c(nc4c(C)cccn4c3=O)N3CCc4ccccc4C32)C1=O (stereo not drawn)	inactive
Cc1ccc2nc(-c3sc4nc(C)cc(C)c4c3N)[nH]c2c1	inconclusive: 3.16 µM [inhibitor, full curve]
CC(C)CN(C(=O)COC(=O)c1ccc(Br)cc1)c1c(N)n(Cc2ccccc2)c(=O)[nH]c1=O	inconclusive: 10 µM [inhibitor, partial curve, poor fit]
CCOc1ccc2[nH]c(=O)c(CN(Cc3cccs3)Cc3nnnn3C(C)(C)C)cc2c1	inconclusive: 32.6 µM [inhibitor, single point]
CCOC(=O)N1CCN(C(=O)c2ccc3c(=O)n(Cc4ccc(Cl)cc4)c(=S)[nH]c3c2)CC1	inconclusive: 2.51 µM [activator, partial curve]
CCn1c(COc2ccccc2C)nnc1SCC(=O)N1CCN(c2ccccc2)CC1	inconclusive: 25.9 µM [inhibitor, single point]
NNc1nc(N)c2c(n1)-c1ccccc1CC21CCCC1	inconclusive: 1 µM [inhibitor, full curve, poor fit]
COCCn1c(SCCCC(=O)c2ccc(Br)cc2)nnc1-c1ccncc1	inconclusive: 4.47 µM [inhibitor, full curve]
O=C(OCc1ccc(F)cc1Cl)c1ccccn1	inactive
CCOc1ccc(Br)cc1CNCCN1CCOCC1	inconclusive: 7.08 µM [activator, partial curve, poor fit]
O=C(c1cnccn1)N(Cc1ccco1)C1(C(=O)NC2CCCC2)CCCCC1	inconclusive: 7.3 µM [activator, single point]
Cc1ccc(C2=NN(C(=O)COc3ncnc4ccccc34)C(c3ccco3)C2)cc1 (stereo not drawn)	inconclusive: 11.2 µM [inhibitor, partial curve, poor fit]
O=C(O)c1ccc(C(=O)O)c(C(=O)c2ccccc2)c1	inconclusive: 18.3 µM [activator, partial curve]
CCOC(=O)N1CCN(C2=C(NS(=O)(=O)c3ccccc3)C(=O)c3ccccc3C2=O)CC1	inactive

Reference: PubChem BioAssay AID540276 (National Center for Advancing Translational Sciences (NCATS), 2011)
